For assay [1], the target named is T1, Dam1-3HA (S. cerevisiae) (UniProt P53267).
T1 sequence: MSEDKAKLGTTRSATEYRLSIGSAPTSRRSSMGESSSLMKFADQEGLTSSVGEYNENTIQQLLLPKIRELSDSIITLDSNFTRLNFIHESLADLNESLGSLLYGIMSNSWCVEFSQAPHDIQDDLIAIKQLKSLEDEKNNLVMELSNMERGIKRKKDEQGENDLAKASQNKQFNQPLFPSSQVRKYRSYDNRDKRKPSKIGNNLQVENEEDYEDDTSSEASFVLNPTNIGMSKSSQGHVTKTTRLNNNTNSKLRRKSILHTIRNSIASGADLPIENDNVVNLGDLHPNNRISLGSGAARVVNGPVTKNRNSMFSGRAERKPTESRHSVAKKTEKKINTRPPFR
Description: condition: only cells synchronized in G1 with α-factor; co-IP; as a1, but cells synchronized in G1 with α-factor; IP with α-HA conjugated agarose beads, western blot with α-HA and α-Myc.

The target of assay [2] is T1, Dam1-3HA (S. cerevisiae). The assay can be described thus: co-IP; whole cell extracts of yeast expressing Dam1-3HA and Set1-9Myc from their native promoters; IP with α-HA conjugated agarose beads, western blot with α-HA and α-Myc; cells in S-phase (HU) and in metaphase (80 min after release from α-factor). (In western blotting, separated proteins are transferred to a membrane and probed.)

In assay [3] the target is T2, Flag-tagged Jhd2 (S. cerevisiae) (UniProt P47156).
T2 sequence: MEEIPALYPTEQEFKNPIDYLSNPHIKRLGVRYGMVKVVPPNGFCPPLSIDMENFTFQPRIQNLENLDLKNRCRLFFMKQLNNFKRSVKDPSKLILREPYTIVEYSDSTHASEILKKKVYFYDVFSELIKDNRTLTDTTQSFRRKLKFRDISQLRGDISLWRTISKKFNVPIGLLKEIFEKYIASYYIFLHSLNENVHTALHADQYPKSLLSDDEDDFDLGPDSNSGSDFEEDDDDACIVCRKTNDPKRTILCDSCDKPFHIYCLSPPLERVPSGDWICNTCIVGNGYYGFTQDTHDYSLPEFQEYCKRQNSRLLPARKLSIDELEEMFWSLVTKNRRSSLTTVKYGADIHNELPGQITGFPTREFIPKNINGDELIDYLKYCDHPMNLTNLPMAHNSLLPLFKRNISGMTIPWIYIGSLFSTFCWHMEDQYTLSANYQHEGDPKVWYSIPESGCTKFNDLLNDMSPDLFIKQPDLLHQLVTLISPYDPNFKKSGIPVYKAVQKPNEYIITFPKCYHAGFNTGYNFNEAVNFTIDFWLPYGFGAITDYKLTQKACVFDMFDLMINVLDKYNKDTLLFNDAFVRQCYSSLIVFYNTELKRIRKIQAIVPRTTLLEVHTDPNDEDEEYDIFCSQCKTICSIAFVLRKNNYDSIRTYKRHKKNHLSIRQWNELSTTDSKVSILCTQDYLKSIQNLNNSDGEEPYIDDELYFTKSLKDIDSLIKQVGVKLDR
Description: co-IP; whole cell extracts of LOG phase yeast with Dam1-3HA (endogenous promoter) and FLAG-JHD2 (GAL1 promoter, galactose+raffinose 6 hours); IP with α-HA conjugated and α-Flag conjugated agarose beads, western blot with α-HA and α-Flag.

The target in assay [4] is T1, Dam1-3HA (S. cerevisiae). The assay is described as above.

No constants are given. Whether binding was seen depends on the method and setting. Binding seen in cells or lysates may run through a third protein. Some binding calls cover weakened binding; strength is not graded here. Sequences can lack the tags named with a protein.

B1: Set1-9Myc (enzyme, UniProt P38827 1-1080)
chain: MSNYYRRAHASSGSYRQPQEQPQYSRSGHYQYSNGHSHQQYSSQYNQRRRYNHNDGTRRRYNDDRPHSSNNASTRQYYATNNSQSGPYVNKKSDISSRRGMSQSRYSNSNVHNTLASSSGSLPTESALLLQQRPPSVLRYNTDNLKSKFHYFDPIKGEFFNKDKMLSWKATDKEFSETGYYVVKELQDGQFKFKIKHRHPEIKASDPRNENGIMTSGKVATHRKCRNSLILLPRISYDRYSLGPPPSCEIVVYPAQDSTTTNIQDISIKNYFKKYGEISHFEAFNDPNSALPLHVYLIKYASSDGKINDAAKAAFSAVRKHESSGCFIMGFKFEVILNKHSILNNIISKFVEINVKKLQKLQENLKKAKEKEAENEKAKELQGKDITLPKEPKVDTLSHSSGSEKRIPYDLLGVVNNRPVLHVSKIFVAKHRFCVEDFKYKLRGYRCAKFIDHPTGIYIIFNDIAHAQTCSNAESGNLTIMSRSRRIPILIKFHLILPRFQNRTRFNKSSSSSNSTNVPIKYESKEEFIEATAKQILKDLEKTLHVDIKKRLIGPTVFDALDHANFPELLAKRELKEKEKRQQIASKIAEDELKRKEEAKRDFDLFGLYGGYAKSNKRNLKRHNSLALDHTSLKRKKLSNGIKPMAHLLNEETDSKETTPLNDEGITRVSKEHDEEDENMTSSSSEEEEEEAPDKKFKSESEPTTPESDHLHGIKPLVPDQNGSSDVLDASSMYKPTATEIPEPVYPPEEYDLKYSQTLSSMDLQNAIKDEEDMLILKQLLSTYTPTVTPETSAALEYKIWQSRRKVLEEEKASDWQIELNGTLFDSELQPGSSFKAEGFRKIADKLKINYLPHRRRVHQPLNTVNIHNERNEYTPELCQREESSNKEPSDSVPQEVSSSRDNRASNRRFQQDIEAQKAAIGTESELLSLNQLNKRKKPVMFARSAIHNWGLYALDSIAAKEMIIEYVGERIRQPVAEMREKRYLKNGIGSSYLFRVDENTVIDATKKGGIARFINHCCDPNCTAKIIKVGGRRRIVIYALRDIAASEELTYDYKFEREKDDEERLPCLCGAPNCKGFLN
B1: the binding entry in the assay with Dam1-3HA (S. cerevisiae) [1] is “no binding”; in the assay with Dam1-3HA (S. cerevisiae) [2] it was “binds”.

B2: Dam1-3HA (protein, UniProt P53267 1-343)
chain: T1 sequence
As for B2, the binding entry in assay [3] is “binds”.

B3: Flag-tagged Jhd2 (enzyme, UniProt P47156 1-728)
chain: T2 sequence
Take B3: the binding entry in the assay with Dam1-3HA (S. cerevisiae) [4] is on record as “binds”.

Values taken from PMC12204631.
